Source: the supplement of paper PMC8291772
± gives the standard error. The list shows a part of the results. Repeats in this data set agree poorly, so a single value says little.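 Every DNA sequence of one to five nucleotides was in the library. Extension ability overall was judged using a cutoff equal to the blocked version's mean plus three standard deviations; the probe detects only chains with at least seven added dT.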

Protein sequences, listed by entry. Tags and fused reporters are not part of them. Lines headed by an entry give the natural chain unless they say otherwise; changes in a name come on top.
UniProt P06526: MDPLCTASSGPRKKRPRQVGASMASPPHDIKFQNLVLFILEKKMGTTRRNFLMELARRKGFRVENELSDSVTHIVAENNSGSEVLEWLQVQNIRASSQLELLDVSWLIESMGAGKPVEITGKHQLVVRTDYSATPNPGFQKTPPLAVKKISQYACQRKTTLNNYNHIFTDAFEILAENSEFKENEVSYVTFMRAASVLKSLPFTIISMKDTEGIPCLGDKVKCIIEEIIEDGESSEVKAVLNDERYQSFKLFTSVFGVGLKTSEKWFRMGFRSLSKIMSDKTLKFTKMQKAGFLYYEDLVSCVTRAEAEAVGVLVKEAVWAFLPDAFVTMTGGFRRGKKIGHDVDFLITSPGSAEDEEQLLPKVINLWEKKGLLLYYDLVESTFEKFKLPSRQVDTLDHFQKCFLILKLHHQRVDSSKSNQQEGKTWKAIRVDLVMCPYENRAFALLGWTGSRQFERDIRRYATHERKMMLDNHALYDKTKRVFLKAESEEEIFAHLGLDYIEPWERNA

Biological target: terminal deoxynucleotidyl transferase (calf thymus) (UniProt P06526)
Assay: TdT poly-dT extension signal (Cy3 hybridisation fluorescence, uncapped minus capped) (fluorescence a.u.); higher = more efficient initiation of TdT extension
Conditions: initiator chemistry: D-DNA, free 3'-OH (5'-tethered via HEG linker)

Sequence	TdT poly-dT extension signal
GTTTG	3780 ± 300
CAGGA	5070 ± 300
GGCGT	3930 ± 460
ACCC	3300 ± 310
TGTAT	4020 ± 540
ATCTG	2950 ± 450
TACTA	3360 ± 340
AGCT	3470 ± 440
TGCTT	3960 ± 670
TGATA	3200 ± 420
GGGA	3620 ± 450
ATAAA	3410 ± 420
CTGC	3300 ± 500
AATTT	3580 ± 340
AAATC	3290 ± 250
TGACT	3120 ± 270
GGTC	3080 ± 430
CTCTA	3540 ± 320
TTTG	3430 ± 420
AGCAT	3430 ± 300
GCCTC	3050 ± 210
TAAGG	4020 ± 430
CTGCA	3500 ± 420

Sequence	TdT poly-dT extension signal
CCGCA	4010 ± 400
CACGC	2730 ± 340
TTTAC	2950 ± 350
AGCGA	3700 ± 520
CCTA	3120 ± 350
ACGAA	4120 ± 430
ACGTC	3620 ± 440
AAGG	3330 ± 690
CCTGA	3340 ± 320
CGCCA	3510 ± 390
TAGGG	4710 ± 640
CCCTC	2560 ± 320
GAACT	3090 ± 360
CGATC	2690 ± 320
AGTA	3010 ± 320
TCATA	3610 ± 430
CATA	3320 ± 380
GATGG	3860 ± 500
AGACA	3880 ± 390
CATTT	4380 ± 270
GTTTT	4150 ± 500
TAGAC	1730 ± 440
CGAGA	4200 ± 340

Sequence	TdT poly-dT extension signal
CGGGG	3480 ± 960
TCTCT	2940 ± 300
TTTTC	3000 ± 240
ATATA	3320 ± 320
GGAAC	3400 ± 360
CCCGC	3570 ± 320
TCGTG	3560 ± 420
GTGAT	3390 ± 370
TAACA	3210 ± 380
TCTTC	2970 ± 230
CCAAA	4000 ± 470
AATCC	2620 ± 320
AACGC	3230 ± 330
ATACG	4050 ± 400
CCGAA	3830 ± 440
ATTG	3420 ± 510
TGATC	2970 ± 290
TAAG	3350 ± 370
GAAAC	2810 ± 350
CACAT	2800 ± 430
AGGTT	3670 ± 380
ACAAT	3900 ± 410
CAGAG	3600 ± 550

Sequence	TdT poly-dT extension signal
CATCC	3140 ± 300
TAAGC	3270 ± 520
TGCCC	2860 ± 260
GTACA	3030 ± 360
AAGCC	3150 ± 310
TCGTA	3660 ± 340
CTAA	3230 ± 460
CAAAC	2900 ± 400
AGGC	3440 ± 330
AACAC	2940 ± 360
TCACG	4880 ± 620
ATTCG	3080 ± 330
GTATT	3960 ± 320
TGGCT	3050 ± 380
GGACG	4160 ± 290
ATATC	3080 ± 280
CCCCC	2740 ± 260
TACAC	2960 ± 320
CGCAT	3730 ± 260
TGCTG	3340 ± 550
CAATA	3670 ± 460
GATCC	3100 ± 270
TTAGT	3660 ± 420

Sequence	TdT poly-dT extension signal
CGTG	3380 ± 580
TGGT	4700 ± 680
ACCCG	3250 ± 700
CGCC	3150 ± 370
CACA	3950 ± 340
CGGAG	4440 ± 470
ATCAA	3830 ± 320
GCTTA	4030 ± 600
CGCGA	4280 ± 760
GGGCT	4490 ± 350
CGCCT	3530 ± 310
GGGGA	4470 ± 630
CACTC	2320 ± 260
CCGTT	3740 ± 240
CCCAC	3430 ± 250
TATC	3060 ± 250
GGAAA	5250 ± 960
AAACC	2550 ± 300
CTCAC	3280 ± 290
GTAAA	3580 ± 540
ACTTC	3260 ± 300
ATTA	3710 ± 190
TTCAA	3470 ± 580

Quoted from the results shown for reference:
Sequence	TdT poly-dT extension signal
CGCC	3150 ± 370
CACA	3950 ± 340
CGGAG	4440 ± 470
ATCAA	3830 ± 320
GCTTA	4030 ± 600

Continued:

Sequence	TdT poly-dT extension signal
GGTTG	4050 ± 270
TTCCG	3340 ± 460
TTGAT	3950 ± 500
ATAGC	3240 ± 470
AACG	3070 ± 310
GGGTA	3250 ± 590
TCACA	3460 ± 380
ATTCA	3470 ± 480
GATCG	3620 ± 280
CGAGG	4440 ± 350
TTCG	3400 ± 330
CTTGA	3940 ± 390
GGCTT	3250 ± 370
ATCCA	3740 ± 360
CAAGC	2670 ± 390
AAGT	3970 ± 310
GTGAA	3510 ± 370
TACGA	5010 ± 220
CACTT	4810 ± 580
TAGCC	2730 ± 300
GTCGC	3360 ± 300
GAGG	3570 ± 450
